{
  "source": "patent US7253149B2",
  "about": "“Compounds and methods for modulating cell-adhesion mediated drug resistance” (University of South Florida, priority 2000, dated 2007)",
  "system": "FN-adhered myeloma cells",
  "test": "Intracellular drug accumulation assay by flow cytometry",
  "type": "cell-based, human",
  "conditions": "10 uM doxorubicin, one hour, after 24 hour on plastic, BSA or FN",
  "note": "Entries after “also recorded” stand apart in the source; their conditions may differ.",
  "data": [
    {"compound": "COc1cccc2c1C(=O)c1c(O)c3c(c(O)c1C2=O)C[C@@](O)(C(=O)CO)C[C@@H]3O[C@H]1C[C@H](N)[C@H](O)[C@H](C)O1", "note": "[doxorubicin, Doxorubicin]", "values": [
      {"measurement": "intracellular doxorubicin concentration, FN-adhered vs non-adhered", "value": "equal to that seen in non-adhered controls; also recorded: unaffected"}
    ]}
  ]
}
